According to article PMC9023492:
Like-named read-outs stand apart in the source and are kept apart here. Results are given in words; binding and its absence hold for the method and conditions named. Binding seen in cells or lysates may run through a third protein. Some entries that bind do so weakly or less than the wild type. For some assays here: Sequences can lack the tags named with a protein.

The chains behind the UniProt entries cited, without tags or fusion partners.
UniProt Q92830: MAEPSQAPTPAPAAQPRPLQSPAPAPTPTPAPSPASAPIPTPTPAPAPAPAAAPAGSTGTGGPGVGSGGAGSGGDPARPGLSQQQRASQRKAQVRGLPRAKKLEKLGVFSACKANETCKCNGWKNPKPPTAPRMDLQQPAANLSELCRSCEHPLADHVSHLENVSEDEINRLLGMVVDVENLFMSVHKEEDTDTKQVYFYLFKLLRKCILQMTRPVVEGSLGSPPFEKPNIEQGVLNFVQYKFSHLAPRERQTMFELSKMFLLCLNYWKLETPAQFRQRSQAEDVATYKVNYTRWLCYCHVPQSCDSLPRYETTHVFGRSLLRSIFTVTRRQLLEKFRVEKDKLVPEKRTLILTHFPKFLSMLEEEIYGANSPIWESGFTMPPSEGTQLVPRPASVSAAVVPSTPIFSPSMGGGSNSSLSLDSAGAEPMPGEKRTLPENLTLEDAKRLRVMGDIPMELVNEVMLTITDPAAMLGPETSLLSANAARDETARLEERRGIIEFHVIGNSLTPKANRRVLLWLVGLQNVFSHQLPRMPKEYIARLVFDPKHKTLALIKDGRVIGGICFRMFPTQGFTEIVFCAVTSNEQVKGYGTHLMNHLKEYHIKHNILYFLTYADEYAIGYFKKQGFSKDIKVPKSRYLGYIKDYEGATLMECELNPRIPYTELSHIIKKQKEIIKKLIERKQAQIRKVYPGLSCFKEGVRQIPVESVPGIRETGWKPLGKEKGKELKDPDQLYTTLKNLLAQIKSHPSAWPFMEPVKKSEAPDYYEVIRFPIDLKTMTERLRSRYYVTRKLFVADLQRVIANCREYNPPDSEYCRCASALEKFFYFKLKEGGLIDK
UniProt P01106: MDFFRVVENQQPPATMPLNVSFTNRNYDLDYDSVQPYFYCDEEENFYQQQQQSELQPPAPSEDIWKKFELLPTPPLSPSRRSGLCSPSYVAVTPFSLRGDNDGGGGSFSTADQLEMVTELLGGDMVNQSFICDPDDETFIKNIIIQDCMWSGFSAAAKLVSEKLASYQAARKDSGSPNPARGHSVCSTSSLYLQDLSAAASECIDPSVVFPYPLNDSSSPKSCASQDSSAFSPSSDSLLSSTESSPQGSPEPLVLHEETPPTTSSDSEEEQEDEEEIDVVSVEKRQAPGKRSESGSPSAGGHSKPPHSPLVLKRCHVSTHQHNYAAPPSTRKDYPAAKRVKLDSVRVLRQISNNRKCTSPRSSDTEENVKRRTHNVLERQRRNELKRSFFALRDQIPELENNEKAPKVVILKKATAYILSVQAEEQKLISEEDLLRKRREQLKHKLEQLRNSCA

T1: GST-SNIP1 (UniProt Q8TAD8)
T1 sequence: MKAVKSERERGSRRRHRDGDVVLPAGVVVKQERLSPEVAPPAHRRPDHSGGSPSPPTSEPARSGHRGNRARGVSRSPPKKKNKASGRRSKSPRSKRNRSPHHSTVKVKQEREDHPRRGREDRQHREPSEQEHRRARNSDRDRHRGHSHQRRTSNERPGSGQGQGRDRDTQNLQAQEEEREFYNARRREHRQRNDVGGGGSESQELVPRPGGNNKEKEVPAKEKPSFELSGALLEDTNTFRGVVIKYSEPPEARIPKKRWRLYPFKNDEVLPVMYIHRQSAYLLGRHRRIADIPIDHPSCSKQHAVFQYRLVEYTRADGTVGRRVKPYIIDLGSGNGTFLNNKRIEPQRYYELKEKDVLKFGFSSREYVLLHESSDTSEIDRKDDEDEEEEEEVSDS


Assays:
[1] = target: endogenous KAT2A (human (endogenous in MDA-MB-231 and BT549)) (UniProt Q92830); test: co-IP; endogenous proteins, MDA-MB-231 and BT549 lysates, IP buffer with 1% Triton X-100, Protein A/G magnetic beads, washes with 0.5 M NaCl; also in cells with KAT2A knock-down and in sgKMT5A cells re-expressing KMT5A^WT or KMT5A^R336G
GST-SNIP1 = target: T1, GST-SNIP1; test: pull-down; GST pull-down with purified GST-SNIP1, GST-SNIP1-K301M or GST alone and His-KAT2A, western blot
[2] = target: His-KAT2A (in HEK-293T cells) (UniProt Q92830); test: co-IP; competition in HEK-293T cells: immunoprecipitation of KAT2A with forced overexpression of c-MYC or of SNIP1, harvested 48 h after transfection
[3] = target: His-KAT2A (in HEK-293T cells) (UniProt Q92830); test: co-IP; HEK-293T cells transfected with tagged constructs, IP buffer with 1% Triton X-100, Protein A/G magnetic beads, immunoblot; in some panels with co-expressed KMT5A^WT or KMT5A^R336G
[4] = target: endogenous KAT2A (human (endogenous in MDA-MB-231 and BT549)) (UniProt Q92830); test: co-IP; endogenous proteins, MDA-MB-231 and BT549 lysates, IP buffer with 1% Triton X-100, Protein A/G magnetic beads, washes with 0.5 M NaCl; also in cells with KAT2A knock-down and in sgKMT5A cells re-expressing KMT5A^WT or KMT5A^R336G; remark: listed apart in the source
[5] = target: endogenous c-MYC (human (endogenous in MDA-MB-231 and BT549)) (UniProt P01106); test: as above
[6] = target: Flag-c-MYC (in HEK-293T cells) (UniProt P01106); test: co-IP; HEK-293T cells transfected with tagged constructs, IP buffer with 1% Triton X-100, Protein A/G magnetic beads, immunoblot; in some panels with co-expressed KMT5A^WT or KMT5A^R336G
[7] = target: His-KAT2A (in HEK-293T cells) (UniProt Q92830); test: as above; remark: listed apart in the source

Row | binding [2] | binding [6] | binding [7] | Molecule | further results
1 | – | – | – | endogenous c-MYC (from UniProt P01106 1-454) | binding [1]: binds
2 | – | – | – | His-KAT2A (of the GST pull-down) (from UniProt Q92830 1-837) (enzyme) | binding (GST-SNIP1): binds
3 | binds | – | – | Flag-c-MYC (in HEK-293T cells) (from UniProt P01106 1-454) | binding [3]: binds
4 | – | – | – | endogenous SNIP1 (protein, UniProt Q8TAD8 1-396) MKAVKSERERGSRRRHRDGDVVLPAGVVVKQERLSPEVAPPAHRRPDHSGGSPSPPTSEPARSGHRGNRARGVSRSPPKKKNKASGRRSKSPRSKRNRSPHHSTVKVKQEREDHPRRGREDRQHREPSEQEHRRARNSDRDRHRGHSHQRRTSNERPGSGQGQGRDRDTQNLQAQEEEREFYNARRREHRQRNDVGGGGSESQELVPRPGGNNKEKEVPAKEKPSFELSGALLEDTNTFRGVVIKYSEPPEARIPKKRWRLYPFKNDEVLPVMYIHRQSAYLLGRHRRIADIPIDHPSCSKQHAVFQYRLVEYTRADGTVGRRVKPYIIDLGSGNGTFLNNKRIEPQRYYELKEKDVLKFGFSSREYVLLHESSDTSEIDRKDDEDEEEEEEVSDS | binding [4]: binds; binding [5]: binds
5 | binds | binds | binds | HA-SNIP1 (protein, UniProt Q8TAD8 1-396) MKAVKSERERGSRRRHRDGDVVLPAGVVVKQERLSPEVAPPAHRRPDHSGGSPSPPTSEPARSGHRGNRARGVSRSPPKKKNKASGRRSKSPRSKRNRSPHHSTVKVKQEREDHPRRGREDRQHREPSEQEHRRARNSDRDRHRGHSHQRRTSNERPGSGQGQGRDRDTQNLQAQEEEREFYNARRREHRQRNDVGGGGSESQELVPRPGGNNKEKEVPAKEKPSFELSGALLEDTNTFRGVVIKYSEPPEARIPKKRWRLYPFKNDEVLPVMYIHRQSAYLLGRHRRIADIPIDHPSCSKQHAVFQYRLVEYTRADGTVGRRVKPYIIDLGSGNGTFLNNKRIEPQRYYELKEKDVLKFGFSSREYVLLHESSDTSEIDRKDDEDEEEEEEVSDS | –
6 | – | binds | binds | HA-SNIP1^K301R (protein, UniProt Q8TAD8 1-396) MKAVKSERERGSRRRHRDGDVVLPAGVVVKQERLSPEVAPPAHRRPDHSGGSPSPPTSEPARSGHRGNRARGVSRSPPKKKNKASGRRSKSPRSKRNRSPHHSTVKVKQEREDHPRRGREDRQHREPSEQEHRRARNSDRDRHRGHSHQRRTSNERPGSGQGQGRDRDTQNLQAQEEEREFYNARRREHRQRNDVGGGGSESQELVPRPGGNNKEKEVPAKEKPSFELSGALLEDTNTFRGVVIKYSEPPEARIPKKRWRLYPFKNDEVLPVMYIHRQSAYLLGRHRRIADIPIDHPSCSRQHAVFQYRLVEYTRADGTVGRRVKPYIIDLGSGNGTFLNNKRIEPQRYYELKEKDVLKFGFSSREYVLLHESSDTSEIDRKDDEDEEEEEEVSDS | –
